# Test results taken from article PMC12040169 (PLOS Biology, 2025).
# The list shows a part of the results.
# Tested on: T1, CTL2-GFP (C. trachomatis L2/434/Bu, GFP-expressing)
# T1 construct: L2/434/Bu, GFP-expressing
# Parameters: species or system HeLa; Intracellular C. trachomatis growth in HeLa cells, bulk GFP fluorescence relative to DMSO
# Conditions: 28.5 h, 10 µM; inhibitor
row,Structure (SMILES),% of control remaining
1,COc1ccccc1N1C(=O)NC(=O)/C(=C/NCCCO)C1=O [CBK261618],100%
2,O=C1NC(=O)N(c2ccc(Cl)cc2)C(=O)/C1=C\NC(CO)(CO)CO [CBK264421],100%
3,CCOc1ccc(N2C(=O)NC(=O)/C(=C\NC(C)(CO)CO)C2=O)cc1 [CBK261437],100%
4,Cc1cccc(OP(=O)(O)Oc2cccc(C)c2C)c1C [CBK261316],100%
5,CCN(CC)CCN(C)Cc1ccc2ccc3cccc4ccc1c2c34 [CBK261859],95.2802%
6,CCCCN1C(=O)C(O)(c2c(C)nn(CCO)c2N)c2ccccc21 (stereo not drawn) [CBK304286],112.546%
7,CN(C)C(=O)OCCn1c(=O)oc2cc(Cl)ccc21 [CBK306455],87.8619%
8,Cc1cccc(N2C(=O)NC(=O)/C(=C/NC3CCN(Cc4ccccc4)CC3)C2=O)c1 [CBK261827],100%
9,COc1ccc2c(c1)COC1(CCN(C(=O)Nc3ccc(N(C)C)cc3)CC1)O2 [CBK060753],100%
10,COc1cc(Cl)ccc1NC(=O)Oc1cccc2cnccc12 [CBK012882],117.676%
11,COc1cc(/C=C2\C(=O)NC(=O)N(c3ccc([N+](=O)[O-])cc3)C2=O)ccc1OCC(=O)O [CBK265418],100%
12,CCOc1ccccc1CN1CCN(C)CC1 [CBK261577],100%
13,O=C(Nc1cc([N+](=O)[O-])ccc1O)c1cccc(C(=O)Nc2cc([N+](=O)[O-])ccc2O)c1 [CBK261168],119.853%
14,COc1cccc2c1OCCC2CNCCCc1ccccc1 (stereo not drawn) [CBK007716],109.985%
15,Cc1ccc(OP(=O)(NCCN2CCOCC2)Oc2ccc(C)cc2)cc1 [CBK261802],100%
16,Cc1cc(Cl)c(OC(=O)NC2CCCCC2)cc1C [CBK022948],120.167%
17,CN(C)C(=O)c1ccc(Cn2nc(C(=O)Nc3nccs3)c3ccccc32)cc1 [CBK047701],103.165%
18,NC(=O)C1=CN([C@@H]2O[C@H](CO)[C@H](O)C2O)C2N=CN=C(N)C12 (stereo partly drawn) [CBK201209],115.282%
19,CNC(=O)Oc1ccccc1/C=N/N(C)C [CBK023194],113.77%
20,COC(=O)c1cccc2c3c(n(Cc4ccccc4)c12)CCCC3=O [CBK036304],65.6295%
21,CC(C)(C)OC(=O)N1CCC2(CC1)OCc1cc(-c3cccc(OCC(=O)N4CCOCC4)c3)ccc1O2 [CBK105254],100%
22,NC(=O)Cn1cc(C(=O)COc2ccccc2)c2ccccc21 [CBK267650],110.609%
23,O=C(Cn1cc(C(=O)c2ccco2)c2ccccc21)NCCc1c[nH]c2ccccc12 [CBK267509],158.62%
24,COc1cc(C=C2C(=O)NC(=O)NC2=O)cc(I)c1OCc1ccc(Cl)cc1Cl [CBK262528],100%
25,C=CCSc1nnc(OC(=O)N(C)C)n1-c1ccc(Cl)cc1 [CBK004817],120.417%

row,Structure (SMILES),% of control remaining
1,CN(Cc1ccc(-c2ccc(S(C)(=O)=O)cc2)nc1)C1CCN(C(=O)Oc2ccc(F)cc2)CC1 [CBK166097],124.332%
2,O=C(Cn1cc(/C=C2/C(=O)NC(=S)N(c3ccc(Cl)cc3)C2=O)c2ccccc21)Nc1ccccc1 [CBK263535],100%
3,O=C(N/N=C1/CN2CCC1CC2)c1cccc(O)c1 [CBK262188C],106.4%
4,CN(C(=O)c1ccc(Cl)c(Cl)c1)[C@H]1CCC[C@H]1N1CCCC1 [CBK003411C],11.667%
5,CC(=O)Nc1ccc(OC(=O)N2CCCCC2)cc1 [CBK090124],122.256%
6,Cc1ccc(Cl)c(OC(=O)NCCOC(=O)NO)c1 [CBK288417],100.01%
7,CNC(=O)Oc1cccc2cccnc12 [CBK015609],128.212%
8,CC[C@H](N)Cn1nc(-c2cccs2)oc1=O [CBK282393],147.149%
9,Cc1cc(/C=C2\C(=O)NC(=O)N(c3ccccc3F)C2=O)c(C)n1-c1cc(C(=O)O)cc(C(=O)O)c1 [CBK264028],100%
10,CC(C)NC(=O)Cn1cc(C(=O)COc2ccccc2)c2ccccc21 [CBK268317],141.612%
11,CC1=CC(C)C(COC(N)=O)(COC(N)=O)C(C)C1 (stereo not drawn) [CBK020974],94.8938%
12,O=C(O)COc1ccc(/C=C2\C(=O)NC(=O)N(c3ccc(OCc4ccccc4)cc3)C2=O)cc1 [CBK265449],100%
13,CN(C)C(=O)c1ccc(Cn2nc(C(=O)NC3CC3)c3ccccc32)cc1 [CBK047720],100%
14,C=CCc1cc(/C=C2\C(=O)NC(=O)N(c3ccc4c(c3)OCO4)C2=O)cc(OC)c1OCC(=O)O [CBK264025],100%
15,O=C1CCCc2c1c1cccc(C(=O)O)c1n2Cc1ccccc1 [CBK002365],82.8471%
16,O=C(O)c1cc(N2C(=O)c3cccc4c([N+](=O)[O-])ccc(c34)C2=O)cc(N2C(=O)c3cccc4c([N+](=O)[O-])ccc(c34)C2=O)c1 [CBK262119],107.776%
17,O=C(COc1ccc(/C=C2\C(=O)NC(=O)N(c3ccc(O)cc3)C2=O)cc1Cl)Nc1ccccc1 [CBK265425],100%
18,O=C(Nc1ccc(NC(=O)c2cccc([N+](=O)[O-])c2)c(Cl)c1)c1cccc([N+](=O)[O-])c1 [CBK261196],101.215%
19,O=C1NC(=O)N(Cc2ccccc2)C(=O)/C1=N\Nc1ccc([N+](=O)[O-])cc1 [CBK261123],100%
20,CN(C)C(=O)Oc1cc(CN2CCCC2)c2ccn(S(=O)(=O)c3ccccc3)c2c1 [CBK137151T],102.547%
21,CC1(C)CC(=O)C(C2(O)C(=O)Nc3ccc(Br)cc32)CO1 (stereo not drawn) [CBK263410],100%
22,O=P(O)(O)CCCc1ccccc1 [CBK012021],126.738%
23,Nc1nonc1OCC(COc1nonc1N)(COc1nonc1N)COc1nonc1N [CBK011044],124.681%
24,O=C(N[C@H]1CCN2C(=O)N(CCCl)C(=O)[C@@H]2C1)c1cccs1 [CBK289542],107.541%
25,COc1ccc(OC(=O)Nc2nn(Cc3ccc(C#N)cc3)c3ccc(C)cc23)cc1 [CBK048654],137.588%

# Of the compounds above, these have a thiophene ring, fused or not.
row,Structure (SMILES),% of control remaining
8,CC[C@H](N)Cn1nc(-c2cccs2)oc1=O [CBK282393],147.149%
24,O=C(N[C@H]1CCN2C(=O)N(CCCl)C(=O)[C@@H]2C1)c1cccs1 [CBK289542],107.541%

# Following part.

row,Structure (SMILES),% of control remaining
1,CC(=O)c1c(C)[nH]c(C(=O)N2CCC(C#N)(c3ccccc3)CC2)c1C [CBK091404],100%
2,Cc1ccc(Cn2nc(C(=O)NCC3COc4ccccc4O3)c3ccccc32)cc1 (stereo not drawn) [CBK047831],102.361%
3,CC(C)CN(/C=N/c1nc(OC(=O)N(c2ccccc2)c2ccccc2)nc2c1ncn2C1CC(O)C(CO)O1)CC(C)C (stereo not drawn) [CBK201170],147.891%
4,O=C(Nc1ccc2c(c1)OC(F)(F)O2)c1nn(Cc2ccc(-c3csnn3)cc2)c2ccccc12 [CBK047877],75.0807%
5,O=C(/C=C/c1ccc(N2N=N2)cc1)/C=C/c1ccc(N2N=N2)cc1 [CBK261638],111.114%
6,Cc1ccc(Cn2nc(NC(=O)Oc3ccccc3)c3ccccc32)cc1 [CBK048407],161.629%
7,COc1cc(/C=C2\C(=O)NC(=O)N(c3ccc([N+](=O)[O-])cc3)C2=O)cc(Cl)c1OCC(=O)O [CBK265431],100%
8,CC(C)C(Nc1c([N+](=O)[O-])cc(C(F)(F)F)cc1[N+](=O)[O-])C(=O)O (stereo not drawn) [CBK261041],104.681%
9,Cc1nnsc1C(=O)N[C@H]1CCN2C(=O)N(CCCl)C(=O)[C@@H]2C1 [CBK289550],150.238%
10,O=C(Nc1ccc(OC(=O)N2CCCCC2)cc1)N1CCCCC1 [CBK090060],109.564%
11,Cc1c([N+](=O)[O-])c([N+](=O)[O-])nn1CC(=O)NCc1cccnc1 [CBK262428],100%
12,CN(C)C(=O)Oc1ccc2[nH]c3c(c2c1)CCNC31CCN(CCOc2ccccc2)C1 (stereo not drawn) [CBK107679],128.474%
13,CCC(=O)N(C[C@H]1CCC[C@@H]1N(C)C)c1ccc(Cl)c(Cl)c1 [CBK003408],102.09%
14,CC1CN(C(=O)COc2ccccc2OC(=O)N(C)C)CC(C)O1 (stereo not drawn) [CBK057627],100.062%
15,O=C(O)c1cccc(NC(=O)c2cc([N+](=O)[O-])cc([N+](=O)[O-])c2)c1 [CBK261555],100%
16,CCN(CC)CCN/C=C1/C(=O)NC(=O)N(Cc2ccccc2)C1=O [CBK261624],100%
17,O=C(O)Cn1cc(C(=O)c2cccs2)c2ccccc21 [CBK287110],122.268%
18,S=C(Nc1ccc2nc3c4ccccc4c4ccccc4c3nc2c1)N1CCOCC1 [CBK263153],87.3122%
19,O=C1NC(=S)N(c2ccc(F)cc2)C(=O)/C1=C\NC1CCN(Cc2ccccc2)CC1 [CBK261825],100%
20,O=C(NO)Nc1ccc(Cl)c(Cl)c1 [CBK016929],88.1873%
21,CCOc1cc(C=C2C(=O)NC(=S)NC2=O)cc(Br)c1OCC(=O)O [CBK265411],100%
22,Cc1ccc(OCCn2cc(/C=C3/C(=O)NC(=O)N(Cc4ccco4)C3=O)c3ccccc32)cc1 [CBK263936],100%
23,O=C1C(=CNCCc2c[nH]c3ccccc23)C(=O)N(c2ccccc2)C(=S)N1c1ccccc1 [CBK265557],100%
24,COc1ccc(CCNCc2ccc([N+](=O)[O-])cc2)cc1OC [CBK262217],100%
25,COc1ccc(N2C(=O)NC(=O)/C(=C\c3ccc(O)c(O)c3)C2=O)cc1 [CBK261436],100%

# Entries from the list above that have a cyano group:
row,Structure (SMILES),% of control remaining
25,COc1ccc(OC(=O)Nc2nn(Cc3ccc(C#N)cc3)c3ccc(C)cc23)cc1 [CBK048654],137.588%
1,CC(=O)c1c(C)[nH]c(C(=O)N2CCC(C#N)(c3ccccc3)CC2)c1C [CBK091404],100%
